Laboratory results taken from the supplement of paper PMC10382679.
Single values of this set are uncertain.

B1: Rpb7; numbered along this chain (parent)
chain: MFFIKDLSLNITLHPSFFGPRMKQYLKTKLLEEVEGSCTGKFGYILCVLDYDNIDIQRGRILPTDGSAEFNVKYRAVVFKPFKGEVVDGTVVSCSQHGFEVQVGPMKVFVTKHLMPQDLTFNAGSNPPSYQSSEDVITIKSRIRVKIEGCISQVSSIHAIGSIKEDYLGAI

Legend:
[1] = variants of: B1; assay: log2 fold change of mutant abundance, UV-irradiated vs unirradiated; higher = more UV resistant (enriched after UV); settings: with Saccharomyces cerevisiae rad7Δ rad26Δ; UV dose (J/m2): 10; genetic background: rad7Δ rad26Δ rpb7Δ + plasmid RPB7 library; outgrowth: 10 cell divisions
[2] = variants of: B1; assay: NOISeq theta enrichment statistic, UV-irradiated vs unirradiated (dimensionless); higher = more UV resistant (enriched after UV); settings: with Saccharomyces cerevisiae rad7Δ rad26Δ; UV dose (J/m2): 10; genetic background: rad7Δ rad26Δ rpb7Δ + plasmid RPB7 library; outgrowth: 10 cell divisions

Variant	log2 fold change of mutant abundance [1]	NOISeq theta enrichment statistic [2]
S133A	0.0812	0.157
S133N	-0.63	-0.369
S133D	-1.1	-0.77
S133P	-0.079	-0.306
S133C	-0.18	-0.206
S133I	-0.92	-0.443
S133F	-0.104	-0.23
S133Y	-0.0978	-0.335
S133L	-0.0839	-0.0366
S133H	0.348	0.266
S133T	0.00573	0.0276
V136A	0.199	0.658
V136T	-0.445	-0.21
V136G	0.0144	0.0246
V136Y	0.376	0.266
V136C	-0.00552	-0.00492
V136I	0.0196	0.0464
V136D	0.516	1.13
V136F	-0.202	-0.311
V136S	-0.282	-0.195
V136N	-0.0973	-0.048
V136L	-0.273	-0.375
V136E	0.595	0.457

Variant	log2 fold change of mutant abundance [1]	NOISeq theta enrichment statistic [2]
E134D	0.168	0.731
E134R	0.0432	0.0399
E134T	-0.289	-0.165
E134W	-0.0373	-0.0254
E134K	-0.513	-1.2
E134Y	-0.799	-0.391
E134V	-0.419	-1.4
E134M	-0.908	-0.595
E134N	0.678	0.345
E134Q	-0.237	-0.282
E134A	-0.0611	-0.105
E134G	-0.164	-0.84
S132T	0.0442	0.0458
S132I	-0.0275	-0.0435
S132D	-0.355	-0.22
S132C	-0.0017	-0.00592
S132G	-0.339	-0.849
S132M	-0.227	-0.175
S132V	-0.267	-0.227
S132N	0.365	1.07
S132R	-0.0139	-0.0578
S132K	0.0309	0.0286
P127I	0.223	0.0881

Record cards, as listed above. Order of values: log2 fold change of mutant abundance [1]	NOISeq theta enrichment statistic [2]
S132I is entered as -0.0275	-0.0435
E134V is entered as -0.419	-1.4

Further records follow.

Variant	log2 fold change of mutant abundance [1]	NOISeq theta enrichment statistic [2]
P127H	-0.341	-0.293
P127S	-0.439	-0.893
P127K	0.238	0.189
P127T	0.0551	0.214
P127R	-0.0672	-0.104
P127E	0.346	0.26
P127L	-0.104	-0.22
P127Q	-0.0222	-0.074
P127A	0.259	0.29
K140S	0.491	0.431
K140Y	-0.283	-0.164
K140I	0.18	0.337
K140E	0.227	0.809
K140Q	-0.0505	-0.0882
K140N	0.0883	0.529
K140D	1.26	0.903
K140M	0.0806	0.0404
K140T	-0.193	-0.345
K140G	-0.472	-0.171
K140R	-0.117	-0.409
K140L	-0.657	-0.352
K140H	0.211	0.153
F121R	0.0321	0.0267

Variant	log2 fold change of mutant abundance [1]	NOISeq theta enrichment statistic [2]
F121Y	0.0266	0.181
F121V	0.0674	0.389
F121T	0.155	0.115
F121S	-0.299	-0.67
N122Y	0.0305	0.095
N122K	0.166	0.768
N122D	0.164	0.53
N122M	-0.0728	-0.0368
N122G	-0.448	-0.208
N122I	-0.186	-0.489
N122S	-0.253	-0.786
N122H	-0.0249	-0.032
N122R	0.486	0.376
N122T	0.0449	0.0619
N122E	0.224	0.157
N122Q	0.83	0.43
S125I	-0.759	-0.428
S125T	0.114	0.614
S125K	-0.148	-0.0804
S125P	-0.117	-0.373
S125C	0.424	0.306
S125F	0.0142	0.0157
S125V	0.0916	0.0464

Variant	log2 fold change of mutant abundance [1]	NOISeq theta enrichment statistic [2]
S125L	-0.0511	-0.124
S125Y	0.0821	0.0877
S125E	0.118	0.079
S125Q	-0.262	-0.212
S125A	0.064	0.13
S129Q	0.0494	0.0315
S129V	-0.163	-0.121
S129A	-0.073	-0.137
S129L	-0.158	-0.336
S129T	-0.137	-0.583
S129H	-0.478	-0.265
S129G	-0.244	-0.136
S129C	-0.106	-0.0884
S129K	0.572	0.325
S129E	0.292	0.215
S129P	-0.232	-0.388
S129I	0.11	0.103
S129Y	-0.129	-0.113
S129F	-0.438	-0.321
P128S	-0.174	-0.405
P128R	-0.0187	-0.0243
P128K	-0.012	-0.00674
P128V	-0.58	-0.407
